Some of the results follow. These are further read-outs of the screen, such as a control signal, another cell line or another target. No call is given for them. Compounds called inactive in the main read-out are mostly missing here.

The nature of the test: hepatocyte lipid droplet accumulation inhibitors, confirmation, imaging, AML12 mouse hepatocytes, single concentration, high-content (AID 463183).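 Further: cells counted after overnight compound exposure.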 The conditions noted are these: BODIPY lipid droplet imaging, measured here: cell count, cytotoxicity, at 5.2 µM, droplets induced with 100 µM oleic acid.
For the compound `C/C(N)=C(/C#N)C(=O)CSc1nnc(Nc2cccc(C)c2)s1`, the cell count was found to be 1630 cells.

`COc1ccc(CCNC(=O)C2CC3Cn4c(nc5cc6ccccc6cc54)C3N2C)cc1` (centres undefined): the cell count worked out at 1570 cells. As for `COc1ccc2c(c1)c(CC(=O)Nc1ccc(C)cc1)c(C)n2C(=O)c1ccc(Cl)cc1`, the figure is 1590 cells; as for `O=C(Nc1ccc(NC(=O)c2cc3ccccc3o2)cc1)c1ccco1`, 1550 cells. To `O=C(Nc1nc(-c2cccs2)c(-c2cccs2)s1)C1CCCC1` belongs 1680 cells; to `O=C(CNCCC1=CCCCC1)Nc1ccccc1N1CCCCC1`, 1620 cells. `CC1(C)OC(c2ccccc2)=C/C(=C/C=C2C(=O)c3ccccc3C2=O)O1` displayed a cell count of 1590 cells. On to `COc1ccc(-c2cc(C(F)(F)F)nc(SCCC(=O)NCc3ccccc3)n2)cc1`, for which the cell count was determined as 1600 cells.

The compound `CCN1C(=O)/C(=C2\C=Cc3cc(C)ccc3N2CC)OC1=S` displayed a cell count of 1670 cells. To `CCCCCC(O)(c1ccc(OCC)cc1)C(CN1CCOCC1)c1ccccc1` (centres undefined) belongs 1530 cells; to `CC(NC(=O)[C@@H](C)NC(=O)[C@@H]1Cc2ccccc2CN1C(=O)OC(C)(C)C)c1ccccc1` (some centres undefined), 1610 cells. As for `CCc1cc(SC#N)cc(CC)c1NC(=O)CCl`, the figure is 1550 cells.

Turning to `COc1ccc(CCN2C(=O)CC(N3CCOCC3)C2=O)cc1OC` (centres undefined), the cell count was found to be 1610 cells. Turning to `CCOc1ccccc1N1CCN(C(=O)NCc2ccc(C)cc2)CC1`, the cell count is 1590 cells.

Consider `COc1ccc(-n2c(=O)c3ccccc3n(CC(=O)Nc3cc(C)on3)c2=O)cc1OC`, for which the cell count is 1630 cells. To `Clc1ccc(Nc2nc(NCCN3CCOCC3)nc(N3CCOCC3)n2)cc1` belongs 1140 cells; to `CCn1cc(CCCC(=O)NCc2cccc(OC)c2)c2ccccc21`, 1640 cells. With `O=C(c1ccc(Cl)cc1)C1CCN(C(=O)NC2CCCCC2)CC1`, the cell count is 1690 cells.

In turn, `CCc1cc(SC#N)cc(C)c1NC(=O)CCl` showed a cell count of 1390 cells. The compound `CCOC(=O)c1sc2cc([N+](=O)[O-])cc(SCCO)c2c1N` yielded a cell count of 1710 cells. With `CC(Sc1nnc(-c2ccccc2)c(-c2ccccc2)n1)C(=O)N1CCc2ccccc21` (centres undefined), the cell count worked out at 1610 cells. To `COc1cccc(N=Nc2c(C)[nH]n(-c3ccccc3)c2=O)c1` belongs 1730 cells; to `CC(C)OC(=O)/C(=C/c1ccc2c(c1)c1ccccc1n2C)NC(=O)c1ccccc1`, 1670 cells; to `COc1ccc(Cl)cc1NC(=O)CCNC(=O)OCc1ccccc1`, 1650 cells. As for `CCC(C)(C)NC(=O)C(c1ccc(OC)cc1)N(CC1CCCO1)C(=O)CCC(=O)Nc1cc(C)on1` (centres undefined), the figure is 1550 cells. On to `CC(=O)OCC(=O)[C@@]1(O)CC[C@H]2[C@@H]3CCC4=CC(=O)CC[C@]4(C)[C@H]3[C@@H](O)C[C@@]21C`, for which the cell count amounted to 1600 cells. As for `CCOc1ccc(CCNC(=O)COC(=O)/C=C/c2ccc(OC)c(OC)c2)cc1OCC`, the figure is 1590 cells; as for `Cc1cccc(C(C(=O)NC2CCCC2)N(C(=O)c2csnn2)C2CCCC2)c1` (centres undefined), 1570 cells.

The compound `COc1ccccc1NC(=O)C1CCN(C(=O)NCc2ccccc2)CC1` showed a cell count of 1650 cells.

`CCOc1ccccc1NC(=O)N1CCCC1C(=O)Nc1ccc(-n2cnnn2)c(C)c1` (centres undefined) had a cell count of 1660 cells. `FC(F)(F)c1ccc(Cl)c(NC(=S)N/N=C/c2ccccc2C(F)(F)F)c1` returned a cell count of 1680 cells. As for `COc1cc(CNC(=O)c2cccc(COc3ccc(Cl)cc3)c2)cc(OC)c1`, the figure is 1580 cells.

In turn, `COc1cc(N2CCCC2)c(OC)cc1/C=C(/C#N)c1ccc(F)cc1` yielded a cell count of 1610 cells.

In turn, `CCOc1ccccc1Nc1nnc(SCC(=O)Nc2nc(-c3ccc(OC)cc3)cs2)s1` registered a cell count of 1580 cells. To `Cc1cc(C)n(-c2nc(N(c3ccccc3)c3ccccc3)nc(-n3nc(C)cc3C)n2)n1` belongs 1250 cells. Take `CC(C)(C)C(=O)Cn1c(=O)n(CC2CCCO2)c(=O)c2ccccc21` (centres undefined): the cell count amounted to 1640 cells. To `COC(=O)c1ccccc1NC(=O)c1cccc(NC(=O)c2ccc(Br)o2)c1C` belongs 1580 cells; to `CCOC(=O)C1CCC(CN(Cc2ccccc2)S(=O)(=O)c2ccc([N+](=O)[O-])cc2)CC1` (centres undefined), 1650 cells.

Compound `CCN(CC)S(=O)(=O)c1ccc(C(=O)NCc2ccc3[nH]c4c(c3c2)CCCC4)cc1` gave a cell count of 1510 cells.

Values taken from PubChem BioAssay AID463183 (Sanford-Burnham Center for Chemical Genomics, 2010).
